Results on one molecule are retold here after PubChem BioAssay AID527 (NMMLSC, 2006).

Each structure is given as a SMILES string. Some of the results follow. Some of these compounds have results that are not shown, active ones among them.

One may read the inhibition as the share of the control response that was lost under treatment.

The nature of this assay: blockers of AIP-driven agr signalling in S. aureus – RNAIII-GFP reporter, flow cytometry, primary screen (AID 527).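 Note: 0% = AIP-stimulated control and 100% = unstimulated bacteria without AIP.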 The settings on record: S. aureus RN6390 RNAIII-GFP reporter, AIP-induced, flow cytometry 3 h; measured here: inhibition of GFP MFI; at 2 µM; stronger effect = higher value.
`O=C(OC1CN2CCC1CC2)C(CO)(c1ccccc1)c1ccccc1` (stereo unspecified) came in with an inhibition of 6.7%.
